This is one part of the list.

In the test the target is T1, OsSMF1 (Oryza sativa, UniProt Q6ZLB0 1-436).
T1 sequence: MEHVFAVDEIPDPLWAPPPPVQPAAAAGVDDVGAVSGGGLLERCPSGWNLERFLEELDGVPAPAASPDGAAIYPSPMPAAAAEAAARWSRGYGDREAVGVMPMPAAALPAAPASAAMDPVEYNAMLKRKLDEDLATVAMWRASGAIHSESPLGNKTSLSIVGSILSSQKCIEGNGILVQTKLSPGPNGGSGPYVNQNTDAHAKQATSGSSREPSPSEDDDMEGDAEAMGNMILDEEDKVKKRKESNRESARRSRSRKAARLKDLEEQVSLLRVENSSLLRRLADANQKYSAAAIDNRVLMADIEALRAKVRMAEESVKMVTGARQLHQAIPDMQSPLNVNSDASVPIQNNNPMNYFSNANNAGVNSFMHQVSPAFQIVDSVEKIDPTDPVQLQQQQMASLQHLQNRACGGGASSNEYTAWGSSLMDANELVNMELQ
In words: protein-binding microarray (RPBM); PBS, 2% BSA, 51.3 ng/ul salmon testes DNA, 50 uM zinc acetate, 200 nM TF, 25 C, 1 h; high values mean tight binding. The settings on record: protein: recombinant; tags: N-terminal polyhistidine and DsRed monomer fusion (pET32a); chain copies: 2; label: CyDye5-dUTP incorporated in the synthesized complementary strand; 3' TTTTT single-stranded linker to array surface; dsDNA, one strand shown. In short, it runs like this: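 Binding signal is defined as the fluorescence intensity of each feature in arbitrary units, read on an Axon 4000B scanner. Transcription factors with N-terminal polyhistidine and DsRed fusions came from E. coli BL21-CodonPlus and were purified on Ni–NTA. They were incubated at 200 nM for 1 h at 25 °C on a custom Agilent array that had been made double-stranded with Cy5-dUTP, with 50 µM zinc acetate present, and the array was washed.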
For the sequence “AATCTATCGACGCCACCGATCGACCTACGCCTGCAAATTACGGAGTCACCTAGTGCAG”, the binding signal is 3770 fluorescence intensity (a.u.). To “CTCCTCATCCTCATCGTCGCCGCCGCCCACGTCGTCTCGCCGGAGTCACCTAGTGCAG” belongs 6120 fluorescence intensity (a.u.); to “GCACGTGGTGGGCTGAGGTGTTGGGCCGTGGTCACGTGGGCGGAGTCACCTAGTGCAG”, 3160 fluorescence intensity (a.u.); to “CGACCGATGTGCGGTGCACTCGTGCAACCGCGTCGTCGCTCGGAGTCACCTAGTGCAG”, 3390 fluorescence intensity (a.u.).

Take “CATCCATGGCATAAAGCTCCCTCCTCAGCTCCCACCTCCGCGGAGTCACCTAGTGCAG”: the binding signal was 3260 fluorescence intensity (a.u.). The result for “CTTCTGCTTCTTATCAGCTTTACTGCGAGTTTCCGAGCACCGGAGTCACCTAGTGCAG” reads 16700 fluorescence intensity (a.u.); that for “GGGTCACAGTTCCGGTGGCCTACCGAAGACCACGCGTACGCGGAGTCACCTAGTGCAG”, 3650 fluorescence intensity (a.u.). Take “CTGCGCGTAGAAGTGACGCAAGAAGGCAGCGGGCCCACTACGGAGTCACCTAGTGCAG”: the binding signal is 3230 fluorescence intensity (a.u.). In the case of “TGTTATAGTGTAATTATATATAATTACATTATAGCATATACGGAGTCACCTAGTGCAG”, the binding signal was 3420 fluorescence intensity (a.u.). The result for “AACGGGTATAGTTGCATTACCGCTTTCCTCAGTGCGTCATCGGAGTCACCTAGTGCAG” reads 3480 fluorescence intensity (a.u.); that for “TCTAAGACTGAACTTTCCTGTATACATATATTTTGAAAAGCGGAGTCACCTAGTGCAG”, 24600 fluorescence intensity (a.u.). The result for “GGAGATCATAGTTTGTTTTGGTGCTGTCTGTCTTGGTAGTCGGAGTCACCTAGTGCAG” reads 20900 fluorescence intensity (a.u.); that for “TATCAAATATTTTGATAATGCCAAGTCATTTTGGAGGTTCCGGAGTCACCTAGTGCAG”, 3790 fluorescence intensity (a.u.). “TCTCCTCTCGCTCTCGCCATCTCGCCGCCGGCCTCCTCCACGGAGTCACCTAGTGCAG”: the binding signal was 3240 fluorescence intensity (a.u.).

Turning to “CGATCTCCCGGCGTGCCAAGGACATAAACACGTAAGGCGGCGGAGTCACCTAGTGCAG”, the binding signal was 5600 fluorescence intensity (a.u.).

With “TCTTTGGGAGCGTATGGCGCATGCTTCCCAGCTGACGAGGCGGAGTCACCTAGTGCAG”, the binding signal was 6270 fluorescence intensity (a.u.).

As to “GGCCTGCGTGTGATCCTGGATTTCGATCAATTGTGTGTCACGGAGTCACCTAGTGCAG”, the binding signal was 3750 fluorescence intensity (a.u.).

Take “CTACAAATACGTAGCGTCACTCGCTTGCATTGCATCGCATCGGAGTCACCTAGTGCAG”: the binding signal was 5520 fluorescence intensity (a.u.). In the case of “GACCGTTGCATTGACATGTAACCTCCAACGCATTGCCTCTCGGAGTCACCTAGTGCAG”, the binding signal is 5210 fluorescence intensity (a.u.). Turning to “ACCTCCAAAGTTCACACATCCATCAATGTCATAACATGGACGGAGTCACCTAGTGCAG”, the binding signal was 3400 fluorescence intensity (a.u.). To “CGATATATTACCCTAATGATGTGTCAGATGGGGATTGTTTCGGAGTCACCTAGTGCAG” belongs 10300 fluorescence intensity (a.u.); to “TCATTTAGGTGTACACCTAAATGATCATTTTAGGTGTACACGGAGTCACCTAGTGCAG”, 3610 fluorescence intensity (a.u.); to “AGGATGGGCGGGAGCACGTCAGACTTGGCACCCAGCACCTCGGAGTCACCTAGTGCAG”, 5400 fluorescence intensity (a.u.). The result for “CCAGGTGATTAATACCATATCATGAGTTGGCAATGCTGAACGGAGTCACCTAGTGCAG” reads 4290 fluorescence intensity (a.u.); that for “TTGGAATGACGCTTTAATTCCATGTAGTGCTATCTCTCCACGGAGTCACCTAGTGCAG”, 3480 fluorescence intensity (a.u.).

“TGTAGGCTTCGGCTTCGTAGGCTGTGGTAGATGTGTTGGCCGGAGTCACCTAGTGCAG”: the binding signal is 3200 fluorescence intensity (a.u.). Turning to “TTTCACTCGTAGACTTTTCTTGTTTCTGAATGATTTTGAGCGGAGTCACCTAGTGCAG”, the binding signal was 3530 fluorescence intensity (a.u.).

Regarding “GAAGGCGTGGAGGAGGAGGAGGAGGAGGGGTCCCAGTCGGCGGAGTCACCTAGTGCAG”, the binding signal was 4480 fluorescence intensity (a.u.). For “GTACAATGCTTCACCATCAGCCCTTTGTCCTGCAGTACGTCGGAGTCACCTAGTGCAG”, the binding signal was 3700 fluorescence intensity (a.u.).

As for “CCGAGGCAACGTGGAGCGCAGCCAACGCGATTAGGTGGCACGGAGTCACCTAGTGCAG”, the binding signal is 3300 fluorescence intensity (a.u.).

Turning to “ATCAAACAAACCGTGATCGGTAATACATAGTCGGTTGAACCGGAGTCACCTAGTGCAG”, the binding signal is 10500 fluorescence intensity (a.u.). Consider “AGATACATTGTTTCCTGCATGATCAATGACTCAAATCTCACGGAGTCACCTAGTGCAG”, for which the binding signal is 3740 fluorescence intensity (a.u.). As for “CGCGCGTGCGGTTCTTGTGTCCGAGGGTGGTGGTGTGTGGCGGAGTCACCTAGTGCAG”, the binding signal was 3360 fluorescence intensity (a.u.). The result for “GGAATCATAGGATGGGCGGAGGACTCCTGATACTGGAGGCCGGAGTCACCTAGTGCAG” reads 3650 fluorescence intensity (a.u.); that for “TTGTACGGCGGTGCCGGATTGGGGTGTGACAGCACTTTACCGGAGTCACCTAGTGCAG”, 8000 fluorescence intensity (a.u.).

Consider “CGAGCGTGACGACGTCAGCGTCCTCGGAACGCAAGGGCACCGGAGTCACCTAGTGCAG”, for which the binding signal was 8220 fluorescence intensity (a.u.). For the sequence “AGCGGGCGGTAGTACTATTCATCTAAGATAAATCCTAGATCGGAGTCACCTAGTGCAG”, the binding signal was 3140 fluorescence intensity (a.u.). On to “GCGATCTGCCAACGCAGCACGCATAAAACCGACCGCCGCACGGAGTCACCTAGTGCAG”, for which the binding signal is 3600 fluorescence intensity (a.u.). Turning to “AATCCACGCACGCACAAGCGCCTCCGCCTCCTCACCTCCTCGGAGTCACCTAGTGCAG”, the binding signal was 5050 fluorescence intensity (a.u.). For the sequence “AACTCAATCGTCCTTGCGGCCAGCTAAGCTACCAAAAGCCCGGAGTCACCTAGTGCAG”, the binding signal is 4760 fluorescence intensity (a.u.). The result for “CAGTGAGATCCATCAAAAGCAAACACATCAGAAGCAGGATCGGAGTCACCTAGTGCAG” reads 3410 fluorescence intensity (a.u.); that for “AACATCACTATACATACTTAAATTTAATGTTAGTTATCTCCGGAGTCACCTAGTGCAG”, 28800 fluorescence intensity (a.u.).
